Results reported in patent US20200308281A1 (KITE PHARMA, published 2020).
No constants are given. Whether binding was seen depends on the method and setting.

Biological target: CD19 CAR on transduced PBMCs
Test: immunohistochemistry on FFPE cell pellets

B1: KIP-8 antibody (mAb clone 39; Clone 39-4) (antibody, V domains shown)
VH: QEQLVESGGGLVQPEGSLTLTCTASGFDLGNNWIHWVRHAPGKGLEWIACVSGSSGNIYYATWAKGRFTMSKASSTTVTLRMTSLTAADTATYFCARGWNLWGPGTLVTVSS
VL: AQVLTQTPASVSAAVGGTVTINCQASQSVYSSNLLTWYQKKPGQPPKLLIYEASKLPSGIPSRFSGSGSGTQFTLTISDVQCADAATYYCLGIYDCVLADCQAFGGGTEVVVKG
notes: Rabbit monoclonal antibody; also called clone 39 (KIP-8); Clone 39-4 vh1
binding: no binding
